Experimental data: PubChem BioAssay AID1259308 (NCATS, 2017)

Test: 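Knock-downs that increase output of a recombinant reporter protein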 (primary screen)
Cell system: human HEK293 embryonic kidney cells stably expressing firefly luciferase (HEK-CMV-Luc2-Hygro)
Reagent: single siRNA against human genes, 0.8 pmol siRNA per well
Duration: 72 h
Read-out: 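Luciferase light (ONE-Glo) measured on one replicate plate set and viability (CellTiter-Glo) on the other, scaled to a negative control siRNA, with robust z-scores and luciferase per cell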
Scale: total luciferase, z-score and total luciferase, % of control: higher = more reporter protein produced; luciferase per cell, z-score: higher = more reporter output per viable cell; viable cells, % of control: higher = more viable cells
Active means: 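An siRNA counts as active if its total luciferase robust z-score exceeds 3; genes with two or more such siRNAs out of three were retested with fresh siRNAs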
Meaning of the calls: active = raised luciferase; inactive = no rise
The deposit covers about 59,000 reagents; shown is a part drawn at random. Of all reagents, about 1,510 (2.6%) were called active. 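Calls use total luciferase alone and ignore viability, so some active siRNAs may act by altering cell number.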 The numbers tell different reagents against one gene apart. No sequences are given here.

no.	gene	siRNA no.	total luciferase, z-score	total luciferase, % of control	luciferase per cell, z-score	viable cells, % of control	Call
1	GPC4 (glypican 4)	1	-0.0514	80.9	1.34	63.5	inactive
2	GPC4 (glypican 4)	2	1.98	121	2.61	68.2	inactive
3	GPC4 (glypican 4)	3	2.75	137	1.97	90.8	inactive
4	CTRB2 (chymotrypsinogen B2)	1	0.991	102	1.28	81	inactive
5	CTRB2 (chymotrypsinogen B2)	2	-0.469	72.6	0.0435	80.2	inactive
6	CTRB2 (chymotrypsinogen B2)	3	-0.427	73.4	0.55	70.9	inactive
7	CDC34 (cell division cycle 34, ubiquitin conjugating enzyme)	1	0.205	86	0.435	85.7	inactive
8	CDC34 (cell division cycle 34, ubiquitin conjugating enzyme)	2	0.628	94.4	0.512	92.2	inactive
9	CDC34 (cell division cycle 34, ubiquitin conjugating enzyme)	3	-2.41	33.9	-1.78	60.5	inactive
10	SUCLG2 (succinate-CoA ligase GDP-forming subunit beta)	1	0.779	97.4	0.165	104	inactive
11	SUCLG2 (succinate-CoA ligase GDP-forming subunit beta)	2	0.409	90	-0.128	104	inactive
12	SUCLG2 (succinate-CoA ligase GDP-forming subunit beta)	3	-1.59	50.2	-1.63	86.1	inactive
13	SLC16A8	1	3.13	144	1.66	104	active
14	SLC16A8	2	1.18	105	1.61	77.2	inactive
15	SLC16A8	3	0.846	98.7	0.223	104	inactive
16	DMBT1 (deleted in malignant brain tumors 1)	1	0.355	88.9	0.279	92.3	inactive
17	DMBT1 (deleted in malignant brain tumors 1)	2	-0.858	64.8	-0.447	81.5	inactive
18	DMBT1 (deleted in malignant brain tumors 1)	3	0.00919	82.1	0.607	78.2	inactive
19	SLC22A24	1	-0.438	73.2	-0.194	86	inactive
20	SLC22A24	2	-1.77	46.8	-1.79	83.8	inactive
21	SLC22A24	3	-0.19	78.1	-0.203	92.1	inactive
22	ARMCX5 (armadillo repeat containing X-linked 5)	1	-1.5	52	-0.675	69.4	inactive
23	ARMCX5 (armadillo repeat containing X-linked 5)	2	-0.705	67.9	-0.572	88.1	inactive
24	ARMCX5 (armadillo repeat containing X-linked 5)	3	0.456	91	0.344	92.8	inactive

Sorted by “luciferase per cell, z-score” (descending): 3 of the entries above
gene	siRNA no.	total luciferase, z-score	total luciferase, % of control	luciferase per cell, z-score	viable cells, % of control	Call
DMBT1 (deleted in malignant brain tumors 1)	3	0.00919	82.1	0.607	78.2	inactive
SLC22A24	1	-0.438	73.2	-0.194	86	inactive
DMBT1 (deleted in malignant brain tumors 1)	2	-0.858	64.8	-0.447	81.5	inactive
